Experimental data from publication PMC12216677, “Structural dynamics of IDR interactions in human SFPQ and implications for liquid–liquid phase separation” (Acta Crystallographica Section D: Structural Biology, 2025).
These are yes or no findings as the source states them, for the method shown. Some entries that bind do so weakly or less than the wild type.

Molecular target: T1, full-length SFPQ (splicing factor proline- and glutamine-rich) (Homo sapiens), P23246
T1 chain: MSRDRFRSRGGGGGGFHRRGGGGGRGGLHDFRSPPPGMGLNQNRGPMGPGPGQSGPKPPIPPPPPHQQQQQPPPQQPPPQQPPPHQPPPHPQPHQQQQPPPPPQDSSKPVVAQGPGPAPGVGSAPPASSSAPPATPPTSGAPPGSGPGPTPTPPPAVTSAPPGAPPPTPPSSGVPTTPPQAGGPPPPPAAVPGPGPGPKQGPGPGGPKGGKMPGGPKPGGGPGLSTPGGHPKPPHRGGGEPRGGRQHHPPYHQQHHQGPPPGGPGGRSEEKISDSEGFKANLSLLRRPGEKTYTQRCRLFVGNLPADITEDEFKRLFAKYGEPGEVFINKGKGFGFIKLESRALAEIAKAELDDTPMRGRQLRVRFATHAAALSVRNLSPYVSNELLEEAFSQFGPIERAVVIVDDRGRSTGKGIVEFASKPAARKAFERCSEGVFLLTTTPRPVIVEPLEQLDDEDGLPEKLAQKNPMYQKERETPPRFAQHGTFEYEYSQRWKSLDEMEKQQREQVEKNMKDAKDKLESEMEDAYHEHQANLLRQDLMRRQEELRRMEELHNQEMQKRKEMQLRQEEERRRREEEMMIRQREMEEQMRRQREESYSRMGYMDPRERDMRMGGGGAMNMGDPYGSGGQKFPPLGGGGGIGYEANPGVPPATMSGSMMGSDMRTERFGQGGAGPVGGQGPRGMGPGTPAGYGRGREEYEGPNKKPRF
Experiment: contrast-matching SANS; static cell, 1:20 hSFPQ:dSFPQ concentrated to 48 mg/ml, dialysed into 150 mM KCl, 0.075% glycerol, 20 mM HEPES, 0.5 mM DTT pH 7.4 in 95% D2O (match-point of dSFPQ); only the protiated chains scatter; both purified
Details: remark: other sources report otherwise

B1: full-length SFPQ (splicing factor proline- and glutamine-rich), P23246 1-707 (natural protein)
chain: T1 chain
binding: binds
